Assay results reported in PubChem BioAssay AID1439 (NMMLSC, 2008).
The whole screen tested about 220,000 compounds, of which about 770 (0.35%) were called active. The inconclusive results got no clear call from the source; some entries with a clear call stand among them for comparison. No stated cut-off is given here; in the data, active means binding response below about 49% or above about 150%; inconclusive means no clear call, values can overlap the other calls; inactive means in between.

Protein sequences, listed by entry. Tags and fused reporters are not part of them.
UniProt P09471, whole entry, looked up: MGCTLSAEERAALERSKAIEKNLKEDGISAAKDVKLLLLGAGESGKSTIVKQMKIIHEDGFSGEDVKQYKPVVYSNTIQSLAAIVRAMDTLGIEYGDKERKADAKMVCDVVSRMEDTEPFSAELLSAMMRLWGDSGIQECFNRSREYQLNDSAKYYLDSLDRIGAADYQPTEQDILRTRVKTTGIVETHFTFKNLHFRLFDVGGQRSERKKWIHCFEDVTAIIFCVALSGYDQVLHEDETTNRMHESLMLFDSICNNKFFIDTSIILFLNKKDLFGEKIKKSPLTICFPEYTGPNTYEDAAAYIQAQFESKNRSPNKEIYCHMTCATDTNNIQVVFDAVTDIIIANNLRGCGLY

Target: Guanine nucleotide-binding protein G(o) subunit alpha (Homo sapiens) (UniProt P09471)
Assay: RGS7-Galphao binding modulators, primary screen, biochemical, multiplexed bead flow cytometry (AID 1439);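 further: fluorescent Galphao held in activated GDP-AlF4 state binding bead-coupled RGS7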
Settings: at 10 µM, actives lie on both sides

Q: How did the binding response (% of control) turn out when `Cc1nn(C)c(Sc2ccccc2N)c1[N+](=O)[O-]` was run?
A: Its binding response (% of control) is inconclusive: 110%.

Q: For `Cc1nn2c(N3CCCC3)c3c(nc2c1-c1ccccc1)CCC3`, which binding response (% of control) is on record?
A: Its binding response (% of control) is inconclusive: 102%.

Q: With `CC(C)(C)c1cc(NC(=O)CCl)n(-c2ccccc2)n1` as the compound, how does the binding response (% of control) read?
A: Its binding response (% of control) is inconclusive: 76%.

Q: With `CS(=O)(=O)c1[nH]nc(-c2cccc(Cl)c2)c1C#N` as the compound, how does the binding response (% of control) read?
A: Its binding response (% of control) is inconclusive: 102%.

Q: With `Cc1ccc[n+](-c2nc3ccccc3nc2[N-]S(=O)(=O)c2ccccc2)c1` as the compound, how does the binding response (% of control) read?
A: The binding response (% of control) was inconclusive: 127%.

Q: With `Cc1ccc(C)c(SCC(=O)OCC(=O)NCc2ccccc2)c1` as the compound, how does the binding response (% of control) read?
A: Its binding response (% of control) is inconclusive: 104%.

Q: For `CCCCn1c(SCC(=O)NC2CCS(=O)(=O)C2)nc2cc(S(N)(=O)=O)ccc21` (configuration not stated), which binding response (% of control) is on record?
A: The binding response (% of control) was inconclusive: 109%.

Q: With `CCOC(=O)CN(C(=O)CSc1nnc2c(n1)[nH]c1ccccc12)c1ccccc1` as the compound, how does the binding response (% of control) read?
A: Its binding response (% of control) is inactive: 97.7%.

Q: How did the binding response (% of control) turn out when `CCCN(Cc1cc2ccccc2[nH]c1=O)C(=O)c1cccc([N+](=O)[O-])c1` was run?
A: Its binding response (% of control) is inconclusive: 109%.

Q: `CC(C)CCN(C(=S)NC(=O)C1CCCCC1)c1c(N)n(Cc2ccccc2)c(=O)[nH]c1=O` was tested. Which binding response (% of control) did it give?
A: Its binding response (% of control) is inactive: 99.9%.

Q: With `COc1cc2c(cc1OC)CN(C(=S)Nc1cccc(Cl)c1C)CC2` as the compound, how does the binding response (% of control) read?
A: Its binding response (% of control) is inconclusive: 168%.

Q: `Cc1nc(CNS(=O)(=O)c2cc([N+](=O)[O-])ccc2C)cs1` was tested. Which binding response (% of control) did it give?
A: Its binding response (% of control) is inconclusive: -327%.

Q: Which binding response (% of control) does the source give for `CN(C)S(=O)(=O)c1ccc(C(=O)Nc2cccc(S(=O)(=O)NC3=NCCC3)c2)cc1` here?
A: The binding response (% of control) was inconclusive: 55.1%.

Q: Which binding response (% of control) does the source give for `O=C(CCCCCn1c(=O)[nH]c2ccccc2c1=O)NCCc1c[nH]c2ccccc12` here?
A: The binding response (% of control) was inactive: 102%.

Q: `CCOC(=O)CNNC(=O)Nc1ccc(Cl)c(Cl)c1` was tested. Which binding response (% of control) did it give?
A: Its binding response (% of control) is inactive: 112%.

Q: For `CCC(Oc1ccccc1)C(=O)N(Cc1ccccc1)c1ccccn1` (configuration not stated), which binding response (% of control) is on record?
A: Its binding response (% of control) is inactive: 89.9%.

Q: With `O=C(NCCCn1ccnc1)C(=O)NCC(c1ccco1)N1CCN(c2ccccc2)CC1` (configuration not stated) as the compound, how does the binding response (% of control) read?
A: Its binding response (% of control) is inconclusive: 104%.

Q: For `Cc1cc(N(CCO)CCO)ccc1N=Nc1cc(F)ccc1F`, which binding response (% of control) is on record?
A: Its binding response (% of control) is inconclusive: 128%.

Q: For `COc1ccc(OC)c(NC(=O)N2CCCC(C)C2)c1` (configuration not stated), which binding response (% of control) is on record?
A: Its binding response (% of control) is inconclusive: 99.2%.

Q: For `CCC1=C2CC[C@H]3C(=O)N(C)C(=O)[C@H]3[C@H]2[C@@]2(Cc3ccccc3)C(=NCC(=O)OC)OC(=O)N2C1=O`, which binding response (% of control) is on record?
A: Its binding response (% of control) is inconclusive: 73.6%.

Q: Which binding response (% of control) does the source give for `c1ccc(CCN=C2CCCc3c2[nH]c2ccccc32)cc1` here?
A: The binding response (% of control) was inconclusive: 169%.

Q: Which binding response (% of control) does the source give for `COCCCNC(=S)N/N=C/c1ccc(OC)cc1` here?
A: Its binding response (% of control) is inconclusive: 136%.

Q: With `O=[N+]([O-])c1ccc(/C=C/c2ccncc2)cc1` as the compound, how does the binding response (% of control) read?
A: The binding response (% of control) was inconclusive: 122%.

Q: For `COc1ccccc1NC(=O)N1CCN(c2ccc3nnc(-c4ccc(F)cc4)n3n2)CC1`, which binding response (% of control) is on record?
A: The binding response (% of control) was inconclusive: 102%.

Q: For `CCNC(=O)NC(=O)C(C)Sc1ncc(C(F)(F)F)cc1Cl` (configuration not stated), which binding response (% of control) is on record?
A: Its binding response (% of control) is inactive: 97.1%.

Q: With `CC(=O)OC1C(N2CCCCC2)c2c(ccc(/C=C/C(=O)N3CCCCC3)c2O)OC1(C)C` (configuration not stated) as the compound, how does the binding response (% of control) read?
A: Its binding response (% of control) is inactive: 99.5%.

Q: For `Cc1ccc(OCC(=O)Nc2nnc(-c3ccco3)s2)cc1`, which binding response (% of control) is on record?
A: The binding response (% of control) was inconclusive: 97.5%.

Q: Which binding response (% of control) does the source give for `Cc1ccccc1NC(=O)Cn1nnc(S(=O)(=O)c2ccc(C(C)(C)C)cc2)c1N` here?
A: Its binding response (% of control) is inactive: 89.8%.

Q: With `Cc1cc2c(C)cc(=O)[nH]c2cc1NC(=O)CCl` as the compound, how does the binding response (% of control) read?
A: The binding response (% of control) was inconclusive: 99.6%.

Q: With `O=C(O)CC/C(=N\NC(=O)CNC(=O)/C=C/c1ccccc1)c1ccccc1` as the compound, how does the binding response (% of control) read?
A: The binding response (% of control) was inconclusive: 95.6%.

Q: Which binding response (% of control) does the source give for `O=C(Cc1n[nH]c(=O)[nH]c1=O)N/N=C/CCc1ccccc1` here?
A: Its binding response (% of control) is inconclusive: 107%.

Q: How did the binding response (% of control) turn out when `Cc1ccc(NS(=O)(=O)c2ccc(-c3csc(C)n3)s2)c(C)c1` was run?
A: The binding response (% of control) was inconclusive: 98.9%.

Q: Which binding response (% of control) does the source give for `CCc1ccc(C(=O)O)cc1` here?
A: The binding response (% of control) was inconclusive: 152%.

Q: How did the binding response (% of control) turn out when `COc1ccc(C(=O)Nc2ccc(O)c3c(=O)cc(-c4cccc(Cl)c4)oc23)cc1` was run?
A: Its binding response (% of control) is inconclusive: 98.5%.

Q: How did the binding response (% of control) turn out when `O=S(=O)(c1ccccc1F)N1CCN(CC(O)c2ccccc2)CC1` (configuration not stated) was run?
A: Its binding response (% of control) is inconclusive: 113%.

Q: Which binding response (% of control) does the source give for `CCN(CC)C(=S)Nc1c(C)n(C)n(-c2ccccc2)c1=O` here?
A: The binding response (% of control) was inactive: 97.7%.

Q: How did the binding response (% of control) turn out when `CCCn1c(=O)c(Br)cn(-c2ccccc2C)c1=O` was run?
A: Its binding response (% of control) is inconclusive: 103%.

Q: For `Cc1sc2ncnc(N(C)CCc3ccccn3)c2c1C`, which binding response (% of control) is on record?
A: The binding response (% of control) was inconclusive: 356%.

Q: With `C=CCn1c(SCc2cc([N+](=O)[O-])cc3c2OCOC3)nc2cc(C(=O)O)ccc2c1=O` as the compound, how does the binding response (% of control) read?
A: Its binding response (% of control) is inconclusive: 91.8%.

Q: With `COc1ccc(CCNC(=O)/C=C/c2ccc(OC)c(S(=O)(=O)N3CCOCC3)c2)cc1` as the compound, how does the binding response (% of control) read?
A: Its binding response (% of control) is inconclusive: 127%.

Q: With `COCCNC(=O)COC(=O)c1ccc(OCC(=O)Nc2ccccc2OC)c(OC)c1` as the compound, how does the binding response (% of control) read?
A: The binding response (% of control) was inconclusive: 90.9%.

Q: For `Cc1ccc(NC(=O)CCC(=O)OCc2ccc(Br)cc2)cc1`, which binding response (% of control) is on record?
A: The binding response (% of control) was inactive: 102%.

Q: For `COc1ccc(N=Nc2cc(C)ccc2O)cc1`, which binding response (% of control) is on record?
A: Its binding response (% of control) is inconclusive: 87%.

Q: With `Cc1cccc(Cc2nnc(CCC(=O)N(C)C3CCOC3)o2)c1` (configuration not stated) as the compound, how does the binding response (% of control) read?
A: Its binding response (% of control) is inactive: 97.5%.

Q: Which binding response (% of control) does the source give for `c1ccc(-c2nn[nH]n2)nc1` here?
A: Its binding response (% of control) is inconclusive: 98.7%.

Q: How did the binding response (% of control) turn out when `C/C(CC(=O)Nc1ccc2c(c1)OCCO2)=N\NC(=O)C(=O)Nc1ccccc1C` was run?
A: The binding response (% of control) was inactive: 99.4%.

Q: Which binding response (% of control) does the source give for `COc1ccc(/C=C/C(=O)Nc2ccc(C(N)=O)cc2)cc1OC` here?
A: Its binding response (% of control) is inconclusive: 99.2%.

Q: For `Clc1ccc(C2[C@H]3CN(CC4CCCCC4)[C@H](c4ccccc4)C34CC2(c2ccccc2)C4)cn1` (some centres not stated), which binding response (% of control) is on record?
A: The binding response (% of control) was inconclusive: 106%.

Q: How did the binding response (% of control) turn out when `CCN1CCc2c(OCc3ccccc3)cccc2C1=O` was run?
A: Its binding response (% of control) is inconclusive: 98.2%.

Q: Which binding response (% of control) does the source give for `Cc1ccc(/C=C(\C#N)C(=O)NC(C)C)o1` here?
A: Its binding response (% of control) is inconclusive: 103%.

Q: With `Cn1cccc/c1=N\c1cccc[n+]1C` as the compound, how does the binding response (% of control) read?
A: The binding response (% of control) was inconclusive: 98.9%.

Q: `Cc1sc2nc(CN(C(=O)NC3CCCCC3)C3CCCCC3)[nH]c(=O)c2c1C` was tested. Which binding response (% of control) did it give?
A: Its binding response (% of control) is inactive: 102%.

Q: `CCN1CCN(CC(=O)c2ccc(OC)cc2)CC1` was tested. Which binding response (% of control) did it give?
A: The binding response (% of control) was inconclusive: 108%.

Q: How did the binding response (% of control) turn out when `COc1ccc(/C=C/C(=O)c2c(O)ccc3c(C)cc(=O)oc23)cc1` was run?
A: Its binding response (% of control) is inactive: 88.9%.

Q: With `O=C(c1ccc2c(c1)OCO2)N1CCC(Cc2ccccc2)CC1` as the compound, how does the binding response (% of control) read?
A: The binding response (% of control) was inconclusive: 75%.

Q: How did the binding response (% of control) turn out when `COc1ccc(C2C(C(N)=O)=C(C)Nc3nc(-c4ccccc4OC)nn32)cc1OC` (configuration not stated) was run?
A: The binding response (% of control) was inactive: 95.2%.

Q: `CC(=O)N[C@@H](Cc1c[nH]c2ccccc12)C(=O)OCC(=O)Nc1ccc(Cl)c(S(=O)(=O)N(C)C)c1` was tested. Which binding response (% of control) did it give?
A: Its binding response (% of control) is inconclusive: 87.8%.
